Data as given in PubChem BioAssay AID330 (DTP/NCI, 2004).
The list is a part of this screen's results and no random one: it is rich in T/C values a quarter to a half above the control, in often repeated tests (any T/C) and in doses without a T/C. Further doses and runs are listed elsewhere. T/C gives the treated animals as a percentage of the vehicle group. Some doses have a count of surviving animals in place of a T/C: the source files T/C as zero there, which appears to mark a toxic dose or a test without result, not a measured value. Some survivor counts are full or nearly so, which does not show that the dose was tolerated: the source hardly ever lists a survival T/C far under the control, and the zero likely stands for such cases as well. Survivors were counted at the toxicity check, usually on the fifth day, unless a day is given; later deaths do not show. Schedule codes are those of the source, taken here to give the interval after Q, in days (D) or hours (H), and the number of doses after X. Some doses were run more than once; their values stand side by side, smallest first. Where survival is the endpoint, the PubChem record calls one and a half times the control and up active, and a quarter to a half above the control has no call in these data; cut-offs in other NCI protocols can differ. Marks such as (2×) give the number of equal values in this list.

Test system: P388 leukemia ip, CD2F1 mice, survival T/C
Test: NCI In Vivo Anticancer Drug Screen. Data for tumor model P388 Leukemia (intraperitoneal) in CD2F1 (CDF1) mice
Details: T/C endpoint: median survival time, higher T/C = longer survival
[1] = dose: 400.0 mg/kg/injection, schedule: Q04DX002 (ip), vehicle: Klucel (hydroxypropylcellulose) (HPC)
[2] = dose: 50.0 mg/kg/injection, schedule: Q01DX009 (ip), vehicle: Klucel (hydroxypropylcellulose) (HPC)
[3] = dose: 200.0 mg/kg/injection, schedule: Q01DX005 (ip), vehicle: Klucel (hydroxypropylcellulose) (HPC)

Q: With `CC[n+]1cccc2ccccc21` as the compound, how does the survivor count (dose: 400.0 mg/kg/injection, schedule: Q04DX003 (ip), vehicle: saline with Tween-80) read?
A: 0 of 6

Q: `Cc1cc(C)nc(NS(=O)(=O)c2ccc(N=c3c4ccccc4n(Cc4ccccc4)c4ccccc34)cc2)n1` was tested. Which survivor count (dose: 200.0 mg/kg/injection, schedule: Q01DX005 (ip), vehicle: saline with Tween-80) did it give?
A: 0 of 6

Q: Which results are given for `CCCCCCCCCCNCCSSCc1ccccc1`?
A: survivor count (dose: 200.0 mg/kg/injection, schedule: Q04DX002 (ip), vehicle: Klucel (hydroxypropylcellulose) (HPC)): 3 of 5; survivor count [1]: 4 of 5

Q: Which survivor count (dose: 200.0 mg/kg/injection, schedule: Q01DX009 (ip), vehicle: saline with Tween-80) does the source give for `c1ccc(N=N/C(=N\Nc2ccccc2)SCCS/C(N=Nc2ccccc2)=N/Nc2ccccc2)cc1` here?
A: 3 of 6

Q: With `O=S(O)CCCCSSCC(O)CO` (stereo not given) as the compound, how does the T/C (dose: 100.0 mg/kg/injection, schedule: Q01DX005 (ip), vehicle: saline) read?
A: 128 % of control

Q: Which results are given for `COC(=O)[C@@H]1c2cc3c(c(O)c2[C@@H](OC)C[C@@]1(C)O)C(=O)c1c(O)cc2c(c1C3=O)OC1O[C@@]2(C)[C@H](O)[C@@H](N(C)C)[C@@H]1O`?
A: T/C (dose: 6.25 mg/kg/injection, schedule: Q01DX009 (ip), vehicle: other): 146 % of control; T/C (dose: 6.25 mg/kg/injection, schedule: Q01DX009 (ip), vehicle: saline): 130 % of control; T/C (dose: 12.5 mg/kg/injection, schedule: Q04DX003 (ip), vehicle: other): 129 % of control; T/C (dose: 12.5 mg/kg/injection, schedule: Q04DX003 (ip), vehicle: saline): 131 % of control; T/C (dose: 25.0 mg/kg/injection, schedule: Q04DX003 (ip), vehicle: other): 135 % of control; T/C (dose: 25.0 mg/kg/injection, schedule: Q04DX003 (ip), vehicle: saline): 135 % of control; survivor count (dose: 100.0 mg/kg/injection, schedule: Q01DX010 (ip), vehicle: saline): 1 of 6; survivor count (dose: 200.0 mg/kg/injection, schedule: Q04DX003 (ip), vehicle: other): 5 of 6

Q: Which T/C (dose: 50.0 mg/kg/injection, schedule: Q04DX003 (ip), vehicle: saline) does the source give for `CCN(CC)P(=O)(N1CC1C)N1CC1C` (stereo not given) here?
A: 140 % of control

Q: With `Cn1c(C2(C)C(=O)NC(=O)c3cnccc32)cc2ccccc21` (stereo not given) as the compound, how does the survivor count [1] read?
A: 3 of 6

Q: How did the T/C (dose: 200.0 mg/kg/injection, schedule: Q01DX005 (ip), vehicle: Klucel (hydroxypropylcellulose) (HPC), evaluated on day 20) turn out when `Oc1c(Cl)cc(Cl)cc1C=NCCSc1ccc(Cl)cc1` was run?
A: 112 % of control

Q: What about the T/C (dose: 200.0 mg/kg/injection, schedule: Q01DX005 (ip), vehicle: Klucel (hydroxypropylcellulose) (HPC), evaluated on day 30) of the same compound?
A: 112, 115, 125 % of control

Q: What about the T/C (dose: 400.0 mg/kg/injection, schedule: Q01DX005 (ip), vehicle: Klucel (hydroxypropylcellulose) (HPC)) of the same compound?
A: 129 % of control

Q: What about the survivor count (dose: 800.0 mg/kg/injection, schedule: Q01DX005 (ip), vehicle: Klucel (hydroxypropylcellulose) (HPC)) of the same compound?
A: 0 of 6

Q: How did the survivor count (dose: 50.0 mg/kg/injection, schedule: Q01DX009 (ip), vehicle: saline with Tween-80) turn out when `O[C@H](c1cc(C(F)(F)F)nc2c(C(F)(F)F)cccc12)[C@@H]1CCCCN1` was run?
A: 4 of 6

Q: What does the source list for `O=C1Nc2ccccc2/C1=N/N=C/c1ccccc1Cl`?
A: survivor count [2]: 6 of 6; survivor count (dose: 100.0 mg/kg/injection, schedule: Q01DX009 (ip), vehicle: Klucel (hydroxypropylcellulose) (HPC)): 6 of 6; survivor count (dose: 200.0 mg/kg/injection, schedule: Q01DX009 (ip), vehicle: Klucel (hydroxypropylcellulose) (HPC)): 2 of 6

Q: `C[N+](C)(C)CCC[n+]1ccc(CCn2ccc3ccccc32)cc1` was tested. Which survivor count (dose: 200.0 mg/kg/injection, schedule: Q01DX001 (ip), vehicle: saline) did it give?
A: 0 of 6

Q: Which survivor count (dose: 50.0 mg/kg/injection, schedule: Q01DX009 (ip), vehicle: other) does the source give for `CC1CCCCC1=C(C#N)C#N` (stereo not given) here?
A: 6 of 6

Q: What about the survivor count (dose: 100.0 mg/kg/injection, schedule: Q01DX009 (ip), vehicle: other) of the same compound?
A: 2 of 6

Q: What does the source list for `Cc1c2ccn(CCCCCCCCn3ccc4c(C)c5nc6ccccc6c5c(C)c4c3)cc2c(C)c2c1nc1ccccc12`?
A: T/C (dose: 6.25 mg/kg/injection, schedule: Q04DX003 (ip), vehicle: distilled water + Tween-80, evaluated on day 30): 125 % of control; T/C (dose: 6.25 mg/kg/injection, schedule: Q04DX003 (ip), vehicle: distilled water + Tween-80, evaluated on day 60): 127 % of control; T/C (dose: 12.5 mg/kg/injection, schedule: Q04DX003 (ip), vehicle: distilled water + Tween-80, evaluated on day 30): 131 and 136 % of control; T/C (dose: 12.5 mg/kg/injection, schedule: Q04DX003 (ip), vehicle: distilled water + Tween-80, evaluated on day 60): 127 % of control; T/C (dose: 25.0 mg/kg/injection, schedule: Q04DX003 (ip), vehicle: distilled water + Tween-80, evaluated on day 30): 140 % of control; T/C (dose: 25.0 mg/kg/injection, schedule: Q04DX003 (ip), vehicle: distilled water + Tween-80, evaluated on day 60): 138 % of control; T/C (dose: 50.0 mg/kg/injection, schedule: Q04DX003 (ip), vehicle: distilled water + Tween-80, evaluated on day 30): 142 % of control; T/C (dose: 50.0 mg/kg/injection, schedule: Q04DX003 (ip), vehicle: distilled water + Tween-80, evaluated on day 60): 138 % of control; survivor count (dose: 50.0 mg/kg/injection, schedule: Q04DX003 (ip), vehicle: distilled water + Tween-80): 2 of 6; survivor count (dose: 100.0 mg/kg/injection, schedule: Q04DX003 (ip), vehicle: distilled water + Tween-80): 0 of 6 and 4 of 6; survivor count (dose: 200.0 mg/kg/injection, schedule: Q04DX003 (ip), vehicle: distilled water + Tween-80): 1 of 6

Q: For `CC([NH-])C(C)[NH-].[Cl][Pt+2][Cl]` (stereo not given), which T/C (dose: 3.12 mg/kg/injection, schedule: Q01DX001 (ip), vehicle: Klucel (hydroxypropylcellulose) (HPC)) is on record?
A: 127 % of control

Q: And the T/C (dose: 6.25 mg/kg/injection, schedule: Q01DX001 (ip), vehicle: Klucel (hydroxypropylcellulose) (HPC))?
A: 130 % of control (2×)

Q: What about the survivor count (dose: 50.0 mg/kg/injection, schedule: Q01DX001 (ip), vehicle: Klucel (hydroxypropylcellulose) (HPC)) of the same compound?
A: 4 of 6 and 5 of 6

Q: What about the survivor count (dose: 100.0 mg/kg/injection, schedule: Q01DX001 (ip), vehicle: Klucel (hydroxypropylcellulose) (HPC)) of the same compound?
A: 0 of 6 and 3 of 6

Q: What about the survivor count (dose: 200.0 mg/kg/injection, schedule: Q01DX001 (ip), vehicle: Klucel (hydroxypropylcellulose) (HPC)) of the same compound?
A: 0 of 6

Q: And the survivor count (dose: 400.0 mg/kg/injection, schedule: Q01DX001 (ip), vehicle: Klucel (hydroxypropylcellulose) (HPC))?
A: 0 of 6

Q: How did the survivor count (dose: 6.25 mg/kg/injection, schedule: Q01DX009 (ip), vehicle: Klucel (hydroxypropylcellulose) (HPC)) turn out when `CCC[CH2][Sn]([Cl])([CH2]CCC)[S]C(=S)NCCNC(=S)[S][Sn]([Cl])([CH2]CCC)[CH2]CCC` was run?
A: 6 of 6

Q: What about the survivor count (dose: 12.5 mg/kg/injection, schedule: Q01DX009 (ip), vehicle: Klucel (hydroxypropylcellulose) (HPC)) of the same compound?
A: 0 of 6

Q: What about the survivor count (dose: 25.0 mg/kg/injection, schedule: Q01DX009 (ip), vehicle: Klucel (hydroxypropylcellulose) (HPC)) of the same compound?
A: 0 of 6

Q: What about the survivor count [2] of the same compound?
A: 0 of 6

Q: `CN(C)CCOc1cnc2ccc(Cl)cc2n1` was tested. Which survivor count [3] did it give?
A: 5 of 5

Q: With `CCOC(=O)C1=C(C)NC(=O)NC1c1coc2cc(C)cc(C)c2c1=O` (stereo not given) as the compound, how does the survivor count (dose: 100.0 mg/kg/injection, schedule: Q01DX005 (ip), vehicle: Klucel (hydroxypropylcellulose) (HPC)) read?
A: 2 of 6

Q: And the survivor count [3]?
A: 0 of 6

Q: With `Cc1c(N=Nc2ccc(Br)cc2)c(-c2ccccc2)nn1C(N)=S` as the compound, how does the survivor count [3] read?
A: 5 of 5

Q: Which results are given for `C[Se]C(C)(C)C(O)(Cc1ccccc1)c1ccccc1` (stereo not given)?
A: survivor count (dose: 100.0 mg/kg/injection, schedule: Q04DX002 (ip), vehicle: saline with Tween-80): 0 of 6; survivor count (dose: 200.0 mg/kg/injection, schedule: Q04DX002 (ip), vehicle: saline with Tween-80): 0 of 6; survivor count (dose: 400.0 mg/kg/injection, schedule: Q04DX002 (ip), vehicle: saline with Tween-80): 0 of 6

Q: With `CC(=O)NC(/C=C/c1ccc(Cl)c(Cl)c1)c1cccc(O)c(=O)c1` (stereo not given) as the compound, how does the survivor count (dose: 50.0 mg/kg/injection, schedule: Q01DX009 (ip), vehicle: saline) read?
A: 6 of 6

Q: And the survivor count (dose: 100.0 mg/kg/injection, schedule: Q01DX009 (ip), vehicle: saline)?
A: 1 of 6

Q: And the survivor count (dose: 200.0 mg/kg/injection, schedule: Q01DX009 (ip), vehicle: saline)?
A: 2 of 6

Q: `CCOC(=O)C1=C(Nc2ccc(OC)cc2)C(N)=NC1=N` was tested. Which T/C (dose: 50.0 mg/kg/injection, schedule: Q01DX009 (ip), vehicle: suspension in saline) did it give?
A: 144 % of control

Q: And the survivor count (dose: 200.0 mg/kg/injection, schedule: Q01DX009 (ip), vehicle: suspension in saline)?
A: 2 of 6
